Reference: patent US20190270982
The exact form of at least one protein or probe is not confirmed.

Legend:
[1] = tested on: lactoferrin; experiment: SELEX; settings: selected on microarray chip, PBS wash, room temperature; purified native protein; single-stranded DNA
[2] = tested on: lactoferrin; experiment: FP; settings: 37 C 15 min, purified native protein, label: FITC, single-stranded DNA
[3] = linear standard curve, diluted milk

| Sequence | selection result [1] | also measured |
| --- | --- | --- |
| GCAGGACACCGTAACCCTAACACGTACGGGGCATTTATGGCATAGCTCTTCCTCCCTGC [N1] | selected | – |
| TGACAGGCAGGACACCGTAACTACCTCTTCCATATCGGTGCAACATTTGGCTTAGCTCTTCCTGCTACCTCCCTCCTCTTCA [N52] | selected | – |
| TGACAGGCAGGACACCGTAACCGGGCTATTGCTCTCAAACTTACACTTTAACGTTTGGGTCCTGCTACCTCCCTCCTCTTCA [N55] | selected | – |
| GCAGGACACCGTAACACGGGCTCTGCTTTTCCAATAATGACAAGTATTGGATGGCCTGC [N8] | selected | – |
| TGACAGGCAGGACACCGTAACGGGCGAATGCTCTCTTTGTTTTATATATAACAAAGTGTCTCTGCTACCTCCCTCCTCTTCA [N57] | selected | – |
| AGGCAGGACACCGTAACGGTGCATCTATGGCTTTGCTCTTCCTACCTGTTCTACGAGCTGCTACCTCCCT [N38] | selected | – |
| TGACAGGCAGGACACCGTAACAACCAACCTACGGTGCAATATTTGGCGGATTAAGCTCTTCCTGCTACCTCCCTCCTCTTCA [N41] | selected | – |
| AGGCAGGACACCGTAACCGGTGCATCTATGGCTACTAGCTCTTCCTGCCT [N18] | selected | – |
| GGCAGGACACCGTAACCATCGACGGTGCCGGTCTCGGGCATTTTGCTCTTCCTGCC [N32] | selected | – |
| TGACAGGCAGGACACCGTAACGGGCTTAGCTCTAAATCAAATCCTCCTTATTGATTTTGTCCTGCTACCTCCCTCCTCTTCA [N48] | selected | – |
| TGACAGGCAGGACACCGTAACACGGGGCAATTTTGGTGAAGCTCTTCCTGCCCAGCCTACTCTGCTACCTCCCTCCTCTTCA [N54] | selected | – |
| TGACAGGCAGGACACCGTAACGGGTTTAACTCTCAAATTAGCTCTGCACTACATTTGTGCCCTGCTACCTCCCTCCTCTTCA [N50] | selected | – |
| TGACAGGCAGGACACCGTAACGGGCTTATGCTCTTAAAAATCCTGAGCGACTTTTTATGTACTGCTACCTCCCTCCTCTTCA [N59] | selected | – |
| GCAGGACACCGTAACAATACTCCTGTTACCGTGCATCTATGGCCATTGGCTTTTCCTGC [N7] | selected | – |
| GCAGGACACCGTAACTCATCCCAAGCTCCGGTGCCATCTATGGGCTTCGCTTTTCCTGC [N24] | selected | – |
| GCAGGACACCGTAACACTGCTTTATCCCCGTCGGCTTGGCTCTTCGACAGTGTTGCTGC [N28] | selected | – |
| GCAGGACACCGTAACAACAACTTCGTATCCGGTGCATTTATGGCGAATGCTTTTCCTGC [N26] | selected | – |
| GGCAGGACACCGTAACCCCACTCGAGGTGCAATTTTGGCGTGAGCTCTTCCTGCC [N33] | selected | – |
| GCAGGACACCGTAACACTCTCAACCATGACGGTGCAATATTGGCGCTAGCTCTTCCTGC [N9] | selected | – |
| TGACAGGCAGGACACCGTAACCATACTTCGGTGCATCCCATGGCGAATTCGCTCTTCCTTCCTGCTACCTCCCTCCTCTTCA [N45] | selected | – |
| GCAGGACACCGTAACGGGCGAACGCTCTTTATTTTGGAACCCACAAAATAATGTTCTGC [N19] | selected | – |

| Sequence | selection result [1] | also measured |
| --- | --- | --- |
| GCAGGACACCGTAACGGGCGGAGCTCTTCCATTTCAGATTTGTAAATGGATGTCACTGC [N20] | selected | – |
| TGACAGGCAGGACACCGTAACGGGCAATCTTGCTCTTATTTTCACACCTGATAAATATGTCCTGCTACCTCCCTCCTCTTCA [N47] | selected | – |
| TGACAGGCAGGACACCGTAACGTAACTACGGACGGCATCTATGGCTATGCTCTTGTCCCTGCTGCTACCTCCCTCCTCTTCA [N51] | selected | – |
| TGACAGGCAGGACACCGTAACGCGGGCGAAGCTCTTAATACCTCTCTATTATGTCCTGTTCCTGCTACCTCCCTCCCCTTCA [N56] | selected | – |
| GGCAGGACACCGTAACCCCTAGTTCCTGGTGCATTTATGGCAAAGCTTTTCCTGCC [N16] | – | binding result [2, 3]: binds |
| GCAGGACACCGTAACGGGCTTATGCTCTTAAAAATCCTGAGCGACTTTTTATGTACTGC [N5] | selected | – |
| CAGGCAGGACACCGTAACCGGGCATTTGCTCTCAATTTAGTCTCAAATTGTGGCCTGCCTG [N17] | selected | – |
| GGCAGGACACCGTAACCCCTAGTTCCTGGTGCATCTATGGCAAAGCTCTTCCTGCC [N34] | selected | – |
| GCAGGACACCGTAACACGGGCTGATGCTCTCTTTATTTTACCTAAATAAAGTGTCCTGC [N13] | selected | – |
| GCAGGACACCGTAACACTACCTTCTTTCGGTGCGATCCATTCGGCTTTGCTTTTCCTGC [N27] | selected | – |
| AGCAGACGGGAGACCTTTAGAGTTGTAACTTGAGTCTGCT [N15] | selected | – |
| TGACAGGCAGGACACCGTAACGGGCTCTGCTCTAAATTTCGCCCTTGCACGAAATTTTGTCCTGCTACCTCCCCCCTCTTCA [N58] | selected | – |
| AGGCAGGACACCGTAACTGAACGGTCTTGGCTACTGCACATTTTTCCTGCCT [N25] | selected | – |
| GCAGGACACCGTAACACTGCTTTATCCCCGTCGGCTTGTCTCTTCGACAGTGTGGCTGC [N29] | selected | – |
| GCAGGACACCGTAACGTATTAACTAGTACCAGTGCATCTATGGCTATTGCTTTTCCTGC [N10] | selected | – |
| AGGCAGGACACCGTAACCTACAACGGTGCCATCTATGGGCTTTGCTTTTCCTGCCT [N36] | selected | – |
| AGCAGACGGGAGACTTTTAGAGTTGTAACTTGAGTCTGCT [N30] | selected | – |
| TGACAGGCAGGACACCGTAACATACGATTCTCTCGCACATTGTGGCTCCGCTTTTATGTTACTGCTACCTCCCTCCTCTTCA [N44] | selected | – |
| TGACAGGCAGGACACCGTAACAACAACTCGATACTGGTGCCATTTTGGGCGAACGCTTTTCCTGCTACCTCCCTCCTCTTCA [N40] | selected | – |
| TGACAGGCAGGACACCGTAACCGGGCGGAGCTCTTATTACATCAACTCGCTGTAATATGGCCTGCTACCTCCCTCCTCTTCA [N46] | selected | – |
| AGGCAGGACACCGTAACACCGGTGCGTCCCACGGCTCCAGCTCTTCCTGCCT [N12] | selected | – |

| Sequence | selection result [1] | also measured |
| --- | --- | --- |
| GACAGGCAGGACACCGTAACGGTGCATCCATGGCTTTTAGCTCTTCCTGAACTGTC [N37] | selected | – |
| CAGGCAGGACACCGTAACGGTGCAATTATTGGTGAACACTCTTCCTTAGCCTGCTACTCTG [N23] | selected | – |
| AGGCAGGACACCGTAACGGTGCGTGTACACGGCTCTGCTTTTCCTGCCT [N39] | selected | – |
| GGCAGGACACCGTAACCCCTAGTTCCTGGTGCATTTATGGCAAAGCTCTTCCTGCC [N35] | selected | – |
| GGCAGGACACCGTAACCAGTATAGGTGCATTTTTGGCGCAAGCTCTTCCTGCCCTG [N31] | – | binding result [2, 3]: binds |
| AGGCAGGACACCGTAACCGGTGCATCTATGGCTACTAGCTTTTCCTGCCT [N2] | – | binding result ([2]; 25 ug/mL lactoferrin standard, no value given): binds |
| GCAGGACACCGTAACACTGCTTTATCCCCGTCGGCTTGGCTCTTCGACAGTGTGGCTGC [N14] | – | binding result [2, 3]: binds |
| TGACAGGCAGGACACCGTAACTTCTGATAATCGGTGCATCTATGGCGTAGCTCTTCCTCACCTGCTACCTCCCTCCTCTTCA [N53] | selected | – |
| TGACAGGCAGGACACCGTAACGGGTAACACTCTACTTATACCTTGCTATAAGTTGTCCGCACTGCTACCTCCCTCCTCTTCA [N49] | selected | – |
| TGACAGGCGGGACACCGTAACCCCAACACGTACGGGGCATTTATGGCATAGCTCTTCCTCCCTGCTACCTCCCTCCTCTTCA [N61] | selected | – |
| GCAGGACACCGTAACGGGCTATGCTCTAAATTCTTCCTACTGACGCAATTTTGGACTGC [N21] | selected | – |
| TGACAGGCAGGACACCGTAACGGTGCGGTCATATCCGGCTTTGCTTTTCCTGCCTTCTCTCCTGCTACCTCCCTCCTCTTCA [N60] | selected | – |
| GCAGGACACCGTAACGGGTGCACACTCTTATTTTTACACGAGCCAAAAATATGTCCTGC [N22] | selected | – |
| TGACAGGCAGGACACCGTAACACGGTGCAAACTCTTGGCGAATGCTTTTCCTGACCCGCTACTGCTACCTCCCTCCTCTTCA [N43] | selected | – |
| GCAGGACACCGTAACTCGGGCAAAGCTCTGAATAATGTTCAACCAATATTCTGTCCTGC [N6] | – | binding result [2, 3]: binds |
| TGACAGGCAGGACACCGTAACACACGTTAACTTACGGCGCATTTTTTGGCTTCAGCTCTTCCTGCTACCTCCCTCCTCTTCA [N42] | selected | – |
| GCAGGACACCGTAACGTTCGTAACAACACGGCATCTATGGCTTTAGCTCTTGTACCTGC [N11] | selected | – |
| GCAGGACACCGTAACGGGCGAACGCTCTAAATAAATGGCATCAATTTCTTTTGCCCTGC [N4] | selected | – |
| GCAGGACACCGTAACGGGCAATCTTGCTCTTATTTTCACACTTGATAAATATGTCCTGC [N3] | selected | – |
